Test results: the supplement of paper PMC9671908
Structures can show the parent of a compound that is named as a salt. Some of the results follow. Repeats are few or missing, and single values can be far off.

How the values were obtained:
MIA PaCa-2 parental = assay: parental cell viability relative to untreated parental control; higher = more surviving cells; conditions: treatment time: 9 days
MIA PaCa-2 persister = assay: persister cell viability relative to untreated persister control; higher = more surviving persister cells; conditions: treatment time: 9 days; cell state: persister (100 nM gemcitabine + 100 nM Torin1)

SMILES | parental cell viability (MIA PaCa-2 parental) [%] | persister cell viability (MIA PaCa-2 persister) [%]
COc1cc(OC)c(/C=C/S(=O)(=O)Cc2ccc(OC)c(OP(=O)(O)O)c2)c(OC)c1 [Briciclib] (inhibitor concentration: 100nM) | 90 | 95
CC[C@H](Nc1ncnc2[nH]cnc12)c1nc2cccc(F)c2c(=O)n1-c1ccccc1 [Idelalisib] (inhibitor concentration: 30µM) | 100 | 100
CNCc1ccc(-c2cc(-c3nc(-c4ccc(S(=O)(=O)C(C)C)cc4)cnc3N)on2)cc1 [Berzosertib] (inhibitor concentration: 100nM) | 97 | 20
CC(C)C[C@H](NC(=O)[C@H](Cc1ccccc1)NC(=O)c1cnccn1)B(O)O [Bortezomib] (inhibitor concentration: 1nM) | 100 | 105
O=C(Nc1ccc([N+](=O)[O-])cc1Cl)c1cc(Cl)ccc1O [Niclosamide] (inhibitor concentration: 100nM) | 96 | 104
Cn1ncc(Cl)c1-c1cc(C(=O)N[C@H](CN)Cc2cccc(F)c2)sc1Cl [Afuresertib (hydrochloride)] (inhibitor concentration: 10µM) | 108 | 107
CCc1cncnc1N1CCN(Cc2nc3ccc(C(F)(F)F)cc3[nH]2)CC1 (inhibitor concentration: 1µM) | 103 | 230
CC(=O)N[C@@H](CCCCN)C(=O)O [N-acetyl-L-lysine] (inhibitor concentration: 10µM) | 100 | 99
Cc1[nH]nc2ccc(-c3cncc(OC[C@@H](N)Cc4ccccc4)c3)cc12 (inhibitor concentration: 100nM) | 85 | 60
CN(C[C@@H]1COCCO1)S(=O)(=O)Nc1ccc2ccc3ncc(-c4cnn(C)c4)cc3c(=O)c2c1 (inhibitor concentration: 10µM) | 92 | 104
CNC(=O)c1ccccc1Oc1nc(Nc2cc(OC)c(OC)c(OC)c2)ncc1Br (inhibitor concentration: 1µM) | 90 | 95
CNC(=O)c1ccccc1Sc1ccc2c(/C=C/c3ccccn3)n[nH]c2c1 [Axitinib] (inhibitor concentration: 3µM) | 15 | 104
CCN(CC)CCCC(C)Nc1ccnc2cc(Cl)ccc12 (stereo not drawn) [Chloroquine] (inhibitor concentration: 10µM) | 95 | 10
O=C1NC(=O)C(c2cnc3ccccn23)=C1c1cn2c3c(cc(F)cc13)CN(C(=O)N1CCCCC1)CC2 (inhibitor concentration: 100nM) | 63 | 22
CC(C)(C(N)=O)C(=O)NCCCNc1nc(Nc2cccc(NC(=O)N3CCCC3)c2)ncc1Br (inhibitor concentration: 3µM) | 90 | 195
CC(C)C(C(=O)O)N1C(=O)C(=Cc2ccc(Br)cc2)SC1=S (stereo not drawn) (inhibitor concentration: 10µM) | 99 | 97
Nc1ncn([C@H]2C[C@H](O)[C@@H](CO)O2)c(=O)n1 [Decitabine] (inhibitor concentration: 30µM) | 41 | 99.5
Cn1nccc1Nc1nccc(-c2ccn([C@H](CO)c3ccc(Cl)c(F)c3)c(=O)c2)n1 [Ravoxertinib] (inhibitor concentration: 10µM) | 83.5 | 102
COc1ccc([C@@H](O)c2cc(-c3ncnc4cc(N5CCOCC5)ccc34)c(F)cc2Cl)nn1 [Nedisertib] (inhibitor concentration: 10µM) | 95 | 83
CC1(COc2ccc3c(c2)ncn3-c2ccc3cccc(N4CCC(N)CC4)c3n2)COC1 [Crenolanib] (inhibitor concentration: 3µM) | 1 | 135
CN1CC[C@H](c2c(O)cc(O)c3c(=O)cc(-c4ccccc4Cl)oc23)[C@H](O)C1 [Flavopiridol] (inhibitor concentration: 100nM) | 100 | 100
CCN1CCN(CC(=O)Nc2ccc(-c3cccc4c(=O)cc(N5CCOCC5)oc34)c3sc4ccccc4c23)CC1 (inhibitor concentration: 1µM) | 81.5 | 110
CCC(C)(C)C(=O)N(O)Cc1ccccc1 (inhibitor concentration: 30µM) | 100 | 97.5
NC(=O)c1ncn([C@@H]2O[C@H](CO)[C@@H](O)[C@H]2O)c1N (inhibitor concentration: 1µM) | 96.5 | 106

Quoted from the results shown for reference:
SMILES | parental cell viability (MIA PaCa-2 parental) [%] | persister cell viability (MIA PaCa-2 persister) [%]
CN(C[C@@H]1COCCO1)S(=O)(=O)Nc1ccc2ccc3ncc(-c4cnn(C)c4)cc3c(=O)c2c1 (inhibitor concentration: 10µM) | 92 | 104
CNC(=O)c1ccccc1Oc1nc(Nc2cc(OC)c(OC)c(OC)c2)ncc1Br (inhibitor concentration: 1µM) | 90 | 95
